Data source: PubChem BioAssay AID1224826 (NIAID, 2016)
Here is one part, drawn at random, of about 17,000 reagents tested. In the full data, about 1,110 (6.6%) got an active call. 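Active means lowered or raised reporter signal; replicate intensities are raw and not normalised per plate.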 Some reagents were tested in more than one well and are listed for each. Further read-outs or replicates are left out here. No sequences are given here.

- Assay: 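Genes that change LPS-induced Tnf promoter activity in mouse macrophages when knocked down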 (primary screen)
- Cell system: RAW264.7 G9 macrophages from mouse bearing reporters for p65 (GFP) and the Tnf promoter (mCherry)
- Reagents: siRNA pool against mouse genes, 100 nM
- Time to read-out: 16 h of LPS stimulation, after 2 days of siRNA transfection
- Challenge: bacterial lipopolysaccharide (Salmonella minnesota R595), 10 ng/ml
- Measurement: 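Nuclear mCherry signal of the Tnf promoter reporter measured by imaging after background removal, scaled to each plate median and turned into robust z-scores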
- Reading the numbers: Tnf reporter robust z-score: higher = stronger Tnf promoter reporter signal after LPS
- Active means: 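Called active when robust z-score is at most -1.3, matching the median of the Tlr4 knock-down control, or over 3; control wells and wells with under 50 cells never active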
- Calls: active = Tnf reporter clearly lowered or raised; inactive = no clear change in Tnf reporter

Depletion of Harbi1 came out at: Tnf reporter robust z-score 0.5; fewer than 50 cells in well enough cells in well; inactive.
With knock-down of Ramac the results were fewer than 50 cells in well fewer than 50 cells per well; well left out of calls; inactive.
With knock-down of Or5au1, the record shows Tnf reporter robust z-score -0.28; fewer than 50 cells in well enough cells in well; inactive.
Depletion of Gpr18 gave: Tnf reporter robust z-score 0.54; fewer than 50 cells in well enough cells in well; inactive.
Knock-down of 1700102P08Rik resulted in: Tnf reporter robust z-score -0.34; fewer than 50 cells in well enough cells in well; inactive.
Against Ibtk, the entry reads fewer than 50 cells in well fewer than 50 cells per well; well left out of calls; inactive.
Against Rufy2, the values are Tnf reporter robust z-score -0.02; fewer than 50 cells in well enough cells in well; inactive.
Knock-down of Sprr1a gave: Tnf reporter robust z-score 2.61; fewer than 50 cells in well enough cells in well; inactive.
For Lypd4 the deposit lists Tnf reporter robust z-score -1.02; fewer than 50 cells in well enough cells in well; inactive.
Against Ccdc9 the deposit lists Tnf reporter robust z-score -0.82; fewer than 50 cells in well enough cells in well; inactive.
Gng10 gave Tnf reporter robust z-score 0.17; fewer than 50 cells in well enough cells in well; inactive.
Hltf showed Tnf reporter robust z-score 1.05; fewer than 50 cells in well enough cells in well; inactive.
Eps8l3 gave Tnf reporter robust z-score 1.23; fewer than 50 cells in well enough cells in well; inactive.
With knock-down of Ankfn1, the record shows fewer than 50 cells in well fewer than 50 cells per well; well left out of calls; inactive.
Agtr1a gave Tnf reporter robust z-score -0.7; fewer than 50 cells in well enough cells in well; inactive.
Adra1b scored Tnf reporter robust z-score -0.25; fewer than 50 cells in well enough cells in well; inactive.
Against Adra1b, the entry reads Tnf reporter robust z-score 0.55; fewer than 50 cells in well enough cells in well; inactive.
After knock-down of Fam193b the results were Tnf reporter robust z-score -0.92; fewer than 50 cells in well enough cells in well; inactive.
Silencing of Spo11 resulted in: Tnf reporter robust z-score 0.61; fewer than 50 cells in well enough cells in well; inactive.
Mrpl17 gave Tnf reporter robust z-score 0.74; fewer than 50 cells in well enough cells in well; inactive.
After knock-down of Or6c76b, the record shows fewer than 50 cells in well fewer than 50 cells per well; well left out of calls; inactive.

2 consecutive entries already listed:
Harbi1: Tnf reporter robust z-score = 0.5; fewer than 50 cells in well = enough cells in well; outcome = inactive
Ramac: fewer than 50 cells in well = fewer than 50 cells per well; well left out of calls; outcome = inactive
